Laboratory results reported in PMC5290148.
These are yes or no findings as the source states them, for the method shown. Binding seen in cells or lysates may run through a third protein. Where a sequence is shown, tags or fusion partners need not be part of it.

The chains behind the UniProt entries cited, without tags or fusion partners. Residues count along the entry.
UniProt P11021, residues 19-654: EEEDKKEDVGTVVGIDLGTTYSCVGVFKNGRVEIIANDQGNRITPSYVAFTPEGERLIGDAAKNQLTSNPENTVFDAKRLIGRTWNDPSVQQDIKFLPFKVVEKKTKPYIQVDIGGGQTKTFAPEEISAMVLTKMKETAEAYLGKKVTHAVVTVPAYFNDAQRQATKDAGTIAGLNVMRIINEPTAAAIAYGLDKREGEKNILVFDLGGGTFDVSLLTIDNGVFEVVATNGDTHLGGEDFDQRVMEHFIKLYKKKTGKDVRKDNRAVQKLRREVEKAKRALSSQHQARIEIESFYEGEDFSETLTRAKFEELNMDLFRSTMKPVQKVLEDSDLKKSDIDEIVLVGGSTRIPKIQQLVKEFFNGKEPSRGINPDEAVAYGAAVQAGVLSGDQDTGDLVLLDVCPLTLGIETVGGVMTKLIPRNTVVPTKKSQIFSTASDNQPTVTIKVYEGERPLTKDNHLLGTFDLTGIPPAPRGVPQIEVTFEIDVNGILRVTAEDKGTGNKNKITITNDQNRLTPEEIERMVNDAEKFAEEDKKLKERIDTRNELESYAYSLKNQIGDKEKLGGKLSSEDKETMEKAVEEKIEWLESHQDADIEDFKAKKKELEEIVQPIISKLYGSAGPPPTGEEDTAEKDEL

Target: T1, Flag-DDRGK1 wild-type (UniProt Q96HY6)
T1 sequence: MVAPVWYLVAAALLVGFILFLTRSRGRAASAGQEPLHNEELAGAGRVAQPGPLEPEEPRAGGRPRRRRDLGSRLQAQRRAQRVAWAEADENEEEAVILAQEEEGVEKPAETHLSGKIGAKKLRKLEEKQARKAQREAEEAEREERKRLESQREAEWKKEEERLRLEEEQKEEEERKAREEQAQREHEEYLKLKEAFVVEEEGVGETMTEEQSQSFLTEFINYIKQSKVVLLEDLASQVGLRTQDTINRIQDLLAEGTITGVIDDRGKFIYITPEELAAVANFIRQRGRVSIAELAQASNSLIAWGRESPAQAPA
Assay: co-IP; Flag M2 affinity gel immunoprecipitates of HEK293T cells transfected with Flag-Vector, Flag-DDRGK1 WT or K267R; endogenous partners found by western blot; also in mock- or Tg-treated (2.5 μM) cells and in control and Ufm1-knockdown cells

Q: For “BiP, endogenous (from UniProt P11021 19-654)”, which binding is on record?
A: The binding was “no binding”.
